Laboratory results published in the supplement of paper PMC4683952.
The list shows a part of the results. No stated cut-off is given here; in the data, active = 2 or more and inactive = the rest. Most values lie within the scatter of the assay; repeated measurements hardly agree.

Tested on: Lgr5 (MarsCy1-Lgr5-EGFP, U2OS)
Experiment: cell-surface Lgr5 expression (SCi1 fluorescence, background-subtracted) relative to WT DMSO (fold of DMSO control); higher = more Lgr5 at the plasma membrane
Conditions: U2OS MarsCy1-Lgr5-EGFP stable; treatment time: overnight; library: ActiProbe-5K (TimTec); 25 µM

Compound | cell-surface Lgr5 expression
O=[N+]([O-])c1cc([N+](=O)[O-])c2cc(-c3ccco3)[nH]c2c1 | inactive: 1.43
COc1ccc(C2C=C(c3ccc(F)cc3)NC(=N)S2)cc1 (centres undefined) | inactive: 1
c1ccc(-c2ccc(-c3nncc(-c4ccccc4)n3)nc2)cc1 | inactive: 1.2
CNc1nc(Cl)nc(Cl)n1 | inactive: 1.52
Cc1cc(=O)n2nc(N)sc2n1 | inactive: 1.18
O=C(Nc1c[nH]c(=O)[nH]c1=O)c1ccco1 | inactive: 1.31
CC(C)(C)c1cn2c3ccccc3nc2n1CCN1CCCC1 | inactive: 1.6
O=C(C1CC1)N1CCN(C(=O)C23CC4CC(CC(C4)C2)C3)CC1 | inactive: 0.86
Cc1nc2cc3c(cc2s1)OCO3 | inactive: 1.26
O=C(NS(=O)(=O)Oc1ccc(F)cc1)OC[C@@H]1CCCN2CCCCC12 (some centres undefined) | inactive: 1.39
O=C(O)C12CC3CC(CC(O)(C3)C1)C2 | inactive: 1.09
Cn1ncc(N)c1C(N)=O | inactive: 1.24
Cc1cc([N+](=O)[O-])nn1CC(C)c1nc(-c2cccs2)no1 (centres undefined) | inactive: 1.15
Brc1ccc2c(c1)[C@@H]1C=CC[C@@H]1[C@H](c1ccncc1)N2 | inactive: 0.655
N#Cc1c(NC(=O)C2CC2)sc2c1CCCCC2 | inactive: 1.19
CC1=NC(=O)C2C(=O)O/C(=C\c3ccc4c(c3)OCO4)C2=C1 (centres undefined) | inactive: 1.13
O=S1(=O)CC(O)C(NCc2ccco2)C1 (centres undefined) | inactive: 1.12
O/N=C\c1sccc1Br | inactive: 1.21
O=[N+]([O-])c1ccc(N2CCCC2)cc1NC1CC1 | inactive: 0.824
Cn1c(=O)c2c(ncn2CC(=O)N/N=C/C=C/c2ccco2)n(C)c1=O | inactive: 1.1
S=c1n(Cc2ccccc2)ccn1CN1CCC2(CC1)OCCO2 | inactive: 1.1
CCN1C(=O)/C(=C2\SC(=S)N(CC3CCCO3)C2=O)c2ccccc21 (centres undefined) | inactive: 1.27
Nc1ccc(C2OCOCC2O)cc1 (centres undefined) | inactive: 1.02

Compounds shown so far containing a thiophene ring, fused or not:
Compound | cell-surface Lgr5 expression
Cc1cc([N+](=O)[O-])nn1CC(C)c1nc(-c2cccs2)no1 (centres undefined) | inactive: 1.15
N#Cc1c(NC(=O)C2CC2)sc2c1CCCCC2 | inactive: 1.19
O/N=C\c1sccc1Br | inactive: 1.21

Additional results

Compound | cell-surface Lgr5 expression
Nc1c(C(=O)C23CC4CC(CC(C4)C2)C3)sc2sc3c(O)cc(=O)[nH]c3c12 | inactive: 0.867
O=C(CSc1nc2[nH]c(=O)cc(O)c2s1)NC1CCCC1 | inactive: 1.15
On1c(-c2ccccc2Cl)nc2c1CCc1nonc1-2 | inactive: 1.3
C/C(=N\N1CCN(C2c3ccccc3-c3ccccc32)CC1)c1ccco1 | inactive: 1.04
Cl.N[C@H]1C[C@@H](CO)[C@H](O)[C@@H]1O | inactive: 1.21
Brc1ccc(-c2cnn3cnnc3n2)cc1 | inactive: 0.991
CN(C)S(=O)(=O)N(C)c1ccccc1 | inactive: 1.05
CCC1([N+](=O)[O-])COCOC1 | inactive: 0.868
O=c1[nH]cnc2c1nc(Br)n2C1OC(CO)C(O)C1O (centres undefined) | inactive: 1.46
Oc1ccc2ccccc2c1Sc1c(O)ccc2ccccc12 | inactive: 0.879
COc1ccc(S(=O)(=O)NCC2CCCO2)c(Cl)c1Cl (centres undefined) | inactive: 1.27
CC1(C)CC2(CC(C)(C)N1)OC(=O)N(CCCO)C2(C)O (centres undefined) | inactive: 1.08
CSCCC1NC(=S)N(C)C1=O (centres undefined) | inactive: 1.11
Fc1cccc(/C=N\n2c(S)nnc2-c2ccccc2)c1 | inactive: 1.01
Clc1ccc(-n2cnnn2)cc1 | inactive: 1.09
O=C(NCCNC(=O)c1ccn[nH]1)c1ccn[nH]1 | inactive: 1.1
Cn1c(=S)sc2ccccc21 | inactive: 1.31
NC1(CN2CCCCC2)CCCCC1 | inactive: 1.24
C[N+]1(CCOCc2ccccc2)CC[N+](C)(CCOCc2ccccc2)CC1 (centres undefined) | inactive: 1.18
Cc1cc(Cl)nc2ccc(F)cc12 | inactive: 1.15
COc1ccc(S(=O)(=O)Nc2ncccn2)cc1 | inactive: 1.15
Sc1nnc(-c2cc(-c3ccccc3)n[nH]2)n1/N=C/C=C\c1ccco1 | inactive: 1.1
CCOCn1cc(NC(=S)NCc2ccco2)cn1 | inactive: 1.21

Compound | cell-surface Lgr5 expression
Fc1ccc(CSc2nc3ccccc3o2)c2ccccc12 | inactive: 1.49
NC1=Nc2ccc(Cl)cc2SC1 | inactive: 0.811
Fc1ccc(/C=C\c2nnc(-c3ccc(Cl)cc3Cl)o2)cc1 | inactive: 1.03
Cn1cccc1/C=N\Nc1ccc(F)cc1 | inactive: 1.11
N#C/C(=C\c1ccncc1)C(N)=S | inactive: 1.18
COC1CCCCC1Nc1ccc2c(c1)CCC2 (centres undefined) | inactive: 1.3
C/C(=N\N1C(=O)c2ccccc2C1=O)C1C(=O)c2ccccc2C1=O | inactive: 1.07
Nc1nc(-c2sc3nc4c(cc3c2N)CCCCC4)nc(N2CCOCC2)n1 | inactive: 1.24
c1csc(CN2CCN(Cc3cccs3)C2c2cccs2)c1 | inactive: 1.3
Cc1nn(C)cc1-c1nnc(CCn2cc([N+](=O)[O-])cn2)o1 | inactive: 1.15
O=S(=O)(c1ccc2oc3ccccc3c2c1)N1CCOCC1 | inactive: 1.41
COc1ccc(OC)c(C2Nc3cccc4cccc(c34)N2)c1 | inactive: 0.745
C1(=C2/SC=CS2)/SC=CS1 | inactive: 0.992
Oc1cc(O)c2sc3nc(-c4ccccc4)cc(-c4ccccc4)c3c2n1 | inactive: 1.31
Cc1ccc(C2CC(C(F)(F)F)n3nccc3N2)s1 (centres undefined) | inactive: 1.12
CC(C)(C)S(=O)(=O)c1ccc(N)nc1 | inactive: 1.31
COc1ccc(NS(=O)(=O)c2ccc(N)cc2)nn1 | inactive: 1.34
O=C(Nc1cnccn1)c1c(O)c2c(n(C3CC3)c1=O)CCCC2 | inactive: 1.35
Cc1cc(C)c(O)c(C(CC(C)C)c2cc(C)cc(C)c2O)c1 | inactive: 1.33
O=C(O)Cn1cnc2sc3c(c2c1=O)CCC3 | inactive: 1.22
OC(CSCc1cccc(C(F)(F)F)c1)C(O)CSCc1cccc(C(F)(F)F)c1 (centres undefined) | inactive: 0.976
O=C1CCCc2oc3ccc(O)cc3c21 | inactive: 1.37
O=[N+]([O-])c1ccc(SC2N=C3CC=CC=C3S2)c([N+](=O)[O-])c1 (centres undefined) | active: 2.25
